No constants are given. Whether binding was seen depends on the method and setting. Binding can be weak; no strength is given. Where a sequence is shown, tags or fusion partners need not be part of it. For some assays here: In cells and extracts the contact can be indirect. Each block holds one molecule with its values, some of them ahead of it.
How the values were obtained:
[1] = molecular target: T1, GST-Rab5A(wt) (D. discoideum) (UniProt Q86JP3); assay: pull-down; GST-Rab5A(wt) (or GST) bound to glutathione-agarose, purified IqgC added; anti-IqgC immunoblot; 50 mM Tris pH 8, 1 mM EGTA, 40 mM NaCl, 1 mM DTT, 0.5% NP40; both purified
T1 sequence: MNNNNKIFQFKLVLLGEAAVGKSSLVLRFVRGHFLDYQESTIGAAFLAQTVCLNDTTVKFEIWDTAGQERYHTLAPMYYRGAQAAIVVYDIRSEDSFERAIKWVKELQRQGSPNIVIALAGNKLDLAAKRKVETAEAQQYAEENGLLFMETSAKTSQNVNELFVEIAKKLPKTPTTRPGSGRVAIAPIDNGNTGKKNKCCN

[2] = molecular target: GST-IqgC (full length) (D. discoideum); assay: pull-down; GST-IqgC bound to glutathione-agarose; YFP-Rab5A proteins from lysates of transfected wild-type cells; anti-GFP immunoblot, densitometry against expression in lysates; only the target purified

binding [1]: binds
Molecule: purified IqgC (D. discoideum)

binding [2]: binds
B1: YFP-Rab5A (wild type) (protein, UniProt Q86JP3 1-201)
chain: T1 sequence

Source: PMC10806400
